According to publication PMC5062600:
These are yes or no findings as the source states them, for the method shown. In cells and extracts the contact can be indirect. Some results given as binding are weak or reduced against the parent protein; the word gives no strength.

Amino acid sequences for entries named in this document (tags omitted). A change or cut given only in a name is not applied to a line headed by its entry. Chains listed by the source or under a name are the forms on record and can include a tag or linker.
UniProt Q60610: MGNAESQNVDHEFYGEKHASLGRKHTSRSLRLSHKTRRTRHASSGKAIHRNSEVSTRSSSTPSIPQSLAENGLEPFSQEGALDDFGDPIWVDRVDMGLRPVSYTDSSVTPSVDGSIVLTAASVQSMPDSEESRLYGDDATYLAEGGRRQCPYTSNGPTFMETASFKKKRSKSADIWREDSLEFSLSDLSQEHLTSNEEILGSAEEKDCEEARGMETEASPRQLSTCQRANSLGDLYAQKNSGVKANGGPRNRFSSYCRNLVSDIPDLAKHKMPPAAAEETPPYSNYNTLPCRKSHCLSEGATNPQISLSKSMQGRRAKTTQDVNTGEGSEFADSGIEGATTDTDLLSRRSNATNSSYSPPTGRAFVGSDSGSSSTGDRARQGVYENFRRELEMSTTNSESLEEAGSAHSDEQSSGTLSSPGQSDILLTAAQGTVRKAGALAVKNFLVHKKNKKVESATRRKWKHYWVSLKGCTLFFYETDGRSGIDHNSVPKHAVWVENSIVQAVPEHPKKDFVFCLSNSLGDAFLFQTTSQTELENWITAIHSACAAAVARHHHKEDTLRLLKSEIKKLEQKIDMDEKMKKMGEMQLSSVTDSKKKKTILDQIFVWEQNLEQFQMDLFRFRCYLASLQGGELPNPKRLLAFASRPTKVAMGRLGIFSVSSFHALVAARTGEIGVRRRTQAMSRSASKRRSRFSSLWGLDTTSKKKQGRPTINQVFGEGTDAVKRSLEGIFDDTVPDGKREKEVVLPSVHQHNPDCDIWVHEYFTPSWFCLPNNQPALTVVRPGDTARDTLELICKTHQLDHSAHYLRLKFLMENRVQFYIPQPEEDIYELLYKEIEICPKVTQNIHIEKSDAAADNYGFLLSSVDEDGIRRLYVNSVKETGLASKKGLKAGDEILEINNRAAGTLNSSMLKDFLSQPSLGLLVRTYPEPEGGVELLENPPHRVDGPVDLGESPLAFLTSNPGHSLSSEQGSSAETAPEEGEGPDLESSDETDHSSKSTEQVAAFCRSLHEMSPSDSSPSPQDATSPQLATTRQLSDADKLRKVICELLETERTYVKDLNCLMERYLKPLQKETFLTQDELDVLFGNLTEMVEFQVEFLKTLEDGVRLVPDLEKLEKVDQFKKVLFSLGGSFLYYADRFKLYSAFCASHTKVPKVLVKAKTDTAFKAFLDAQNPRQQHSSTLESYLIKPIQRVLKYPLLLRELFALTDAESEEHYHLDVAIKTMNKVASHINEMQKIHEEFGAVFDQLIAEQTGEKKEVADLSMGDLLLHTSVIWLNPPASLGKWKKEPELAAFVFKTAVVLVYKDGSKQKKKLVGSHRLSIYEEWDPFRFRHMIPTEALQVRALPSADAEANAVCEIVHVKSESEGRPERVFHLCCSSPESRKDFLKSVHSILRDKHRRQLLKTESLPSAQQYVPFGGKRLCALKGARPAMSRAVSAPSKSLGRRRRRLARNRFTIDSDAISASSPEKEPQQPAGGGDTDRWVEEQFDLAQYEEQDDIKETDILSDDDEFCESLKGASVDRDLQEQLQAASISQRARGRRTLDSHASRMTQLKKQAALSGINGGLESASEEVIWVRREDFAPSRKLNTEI
RAR-related orphan receptor gamma (RORγt) (P51450-2, form named): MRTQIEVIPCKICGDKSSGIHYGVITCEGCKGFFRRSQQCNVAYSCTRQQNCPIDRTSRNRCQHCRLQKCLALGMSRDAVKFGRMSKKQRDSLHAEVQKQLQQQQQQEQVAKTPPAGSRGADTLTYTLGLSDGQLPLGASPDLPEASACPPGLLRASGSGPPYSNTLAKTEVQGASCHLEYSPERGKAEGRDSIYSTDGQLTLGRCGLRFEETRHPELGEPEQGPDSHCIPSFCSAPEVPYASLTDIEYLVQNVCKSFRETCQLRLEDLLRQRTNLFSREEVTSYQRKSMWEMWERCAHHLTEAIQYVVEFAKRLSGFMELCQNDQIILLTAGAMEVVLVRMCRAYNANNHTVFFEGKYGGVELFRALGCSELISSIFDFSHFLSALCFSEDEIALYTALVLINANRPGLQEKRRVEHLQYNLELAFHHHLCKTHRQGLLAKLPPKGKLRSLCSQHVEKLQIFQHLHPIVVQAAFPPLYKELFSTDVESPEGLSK

Key:
[1] = molecular target: T lymphoma invasion and metastasis 1 (Tiam1) (mouse (endogenous in Th17 cells from C57BL/6 mice)) (UniProt Q60610); assay: co-IP; cytoplasmic and nuclear extracts (NE-PER kit, 100 μg each) of mouse Th17 cells polarized for 48 h; rabbit anti-Tiam1 (sc-872) or rabbit IgG overnight at 4 °C, Protein A magnetic beads; immunoblot for Rac1 and RORγ
[2] = molecular target: T lymphoma invasion and metastasis 1 (Tiam1) (mouse (endogenous in Th17 cells from C57BL/6 mice)) (UniProt Q60610); assay: proximity ligation; Duolink PLA on PFA-fixed, permeabilized mouse Th17 cells harvested 0, 6, 12, 24 and 48 h after the start of differentiation; rabbit anti-Tiam1 with mouse anti-Rac1 or mouse anti-RORγ; confocal imaging, 10 cells per time point

binding [1]: binds | binding [2]: binds
Substance: RAR-related orphan receptor gamma (RORγt) (from UniProt P51450-2 1-495)
